This is an account of results in paper PMC9508819, “Rbp95 binds to 25S rRNA helix H95 and cooperates with the Npa1 complex during early pre-60S particle maturation”.

By UniProt entry, the sequences of proteins in these tests, tags left out.
UniProt P34241: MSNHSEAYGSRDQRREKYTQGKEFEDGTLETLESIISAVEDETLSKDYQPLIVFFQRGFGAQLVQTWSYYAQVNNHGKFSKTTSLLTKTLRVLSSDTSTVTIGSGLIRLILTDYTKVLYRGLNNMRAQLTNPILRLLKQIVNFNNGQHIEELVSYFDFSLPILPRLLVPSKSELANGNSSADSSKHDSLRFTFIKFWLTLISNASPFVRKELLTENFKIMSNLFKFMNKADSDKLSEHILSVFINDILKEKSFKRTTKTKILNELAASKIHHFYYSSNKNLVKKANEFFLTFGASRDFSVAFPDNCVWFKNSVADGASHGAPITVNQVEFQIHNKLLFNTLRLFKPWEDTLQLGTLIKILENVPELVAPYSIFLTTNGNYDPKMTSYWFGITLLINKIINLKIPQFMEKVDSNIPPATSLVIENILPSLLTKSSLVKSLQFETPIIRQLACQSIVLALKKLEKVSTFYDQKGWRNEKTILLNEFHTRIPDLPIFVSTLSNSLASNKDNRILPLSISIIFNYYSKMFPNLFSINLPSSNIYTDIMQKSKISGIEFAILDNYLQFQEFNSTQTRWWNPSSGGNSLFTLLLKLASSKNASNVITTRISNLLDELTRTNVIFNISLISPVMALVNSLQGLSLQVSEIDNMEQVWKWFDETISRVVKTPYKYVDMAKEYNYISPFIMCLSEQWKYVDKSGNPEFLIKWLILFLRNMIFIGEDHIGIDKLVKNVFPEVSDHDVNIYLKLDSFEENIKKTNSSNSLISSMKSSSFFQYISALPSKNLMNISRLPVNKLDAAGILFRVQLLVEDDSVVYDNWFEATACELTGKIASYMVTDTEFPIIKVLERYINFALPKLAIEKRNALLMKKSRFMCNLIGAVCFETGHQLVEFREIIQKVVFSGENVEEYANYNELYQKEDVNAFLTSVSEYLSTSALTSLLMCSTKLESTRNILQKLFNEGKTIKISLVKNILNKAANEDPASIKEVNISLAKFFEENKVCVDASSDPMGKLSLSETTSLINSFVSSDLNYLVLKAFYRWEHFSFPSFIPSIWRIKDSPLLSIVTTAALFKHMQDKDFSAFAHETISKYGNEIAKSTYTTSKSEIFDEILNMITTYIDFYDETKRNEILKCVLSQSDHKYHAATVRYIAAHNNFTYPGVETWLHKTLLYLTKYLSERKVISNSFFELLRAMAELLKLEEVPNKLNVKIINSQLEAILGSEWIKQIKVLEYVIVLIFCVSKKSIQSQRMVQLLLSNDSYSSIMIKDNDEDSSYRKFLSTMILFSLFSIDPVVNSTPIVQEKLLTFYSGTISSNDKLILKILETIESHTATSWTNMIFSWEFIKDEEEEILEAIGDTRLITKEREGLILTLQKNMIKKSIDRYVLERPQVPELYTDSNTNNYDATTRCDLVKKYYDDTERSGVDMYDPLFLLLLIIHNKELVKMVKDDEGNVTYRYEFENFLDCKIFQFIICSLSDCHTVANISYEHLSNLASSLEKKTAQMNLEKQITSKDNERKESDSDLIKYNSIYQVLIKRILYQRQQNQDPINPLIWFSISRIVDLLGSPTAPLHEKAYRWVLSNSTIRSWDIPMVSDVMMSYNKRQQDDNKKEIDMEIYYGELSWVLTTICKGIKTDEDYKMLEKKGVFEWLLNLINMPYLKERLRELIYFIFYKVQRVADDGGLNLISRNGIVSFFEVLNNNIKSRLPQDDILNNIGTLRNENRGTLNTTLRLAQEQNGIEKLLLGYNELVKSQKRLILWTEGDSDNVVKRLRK
UniProt P14126: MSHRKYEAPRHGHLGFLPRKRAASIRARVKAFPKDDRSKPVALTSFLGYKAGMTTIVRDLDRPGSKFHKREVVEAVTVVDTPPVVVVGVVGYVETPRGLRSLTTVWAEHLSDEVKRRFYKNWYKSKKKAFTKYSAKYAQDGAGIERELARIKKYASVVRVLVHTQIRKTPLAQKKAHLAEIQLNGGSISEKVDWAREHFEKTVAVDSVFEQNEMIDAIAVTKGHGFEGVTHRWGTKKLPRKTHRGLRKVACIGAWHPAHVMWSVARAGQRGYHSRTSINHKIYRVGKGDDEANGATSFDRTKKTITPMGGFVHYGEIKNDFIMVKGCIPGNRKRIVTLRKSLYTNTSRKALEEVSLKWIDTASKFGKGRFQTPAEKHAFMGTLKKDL

No constants are given. Whether binding was seen depends on the method and setting. In cells and extracts the contact can be indirect. Some results given as binding are weak or reduced against the parent protein; the word gives no strength.

One assay addresses T1, Nsa1-TAP (S. cerevisiae) (UniProt P53136).
T1 sequence: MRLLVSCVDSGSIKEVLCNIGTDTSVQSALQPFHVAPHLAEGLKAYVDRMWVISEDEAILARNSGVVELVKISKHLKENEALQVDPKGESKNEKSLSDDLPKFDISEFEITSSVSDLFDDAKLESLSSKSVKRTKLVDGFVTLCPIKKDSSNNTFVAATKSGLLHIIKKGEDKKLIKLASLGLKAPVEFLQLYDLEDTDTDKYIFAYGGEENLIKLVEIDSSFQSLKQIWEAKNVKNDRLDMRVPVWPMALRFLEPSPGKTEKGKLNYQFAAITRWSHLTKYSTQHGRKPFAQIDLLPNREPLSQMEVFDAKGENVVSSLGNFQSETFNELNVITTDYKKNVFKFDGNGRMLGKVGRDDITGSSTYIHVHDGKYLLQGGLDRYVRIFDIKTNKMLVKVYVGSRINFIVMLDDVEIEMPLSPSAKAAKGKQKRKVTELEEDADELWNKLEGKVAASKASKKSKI
Description: co-IP; tandem-affinity purification from yeast lysate (IgG Sepharose, TEV elution, Calmodulin Sepharose, EGTA elution); 50 mM Tris-HCl pH 7.5, 100 mM NaCl, 1.5 mM MgCl2, 0.1% NP-40, 1 mM DTT; eluates analysed by western blotting; for Figure 8C from wild-type and Δrbp95 strains.

In a further assay the target is T2, Ssf1-TAP (S. cerevisiae) (UniProt P38789).
T2 sequence: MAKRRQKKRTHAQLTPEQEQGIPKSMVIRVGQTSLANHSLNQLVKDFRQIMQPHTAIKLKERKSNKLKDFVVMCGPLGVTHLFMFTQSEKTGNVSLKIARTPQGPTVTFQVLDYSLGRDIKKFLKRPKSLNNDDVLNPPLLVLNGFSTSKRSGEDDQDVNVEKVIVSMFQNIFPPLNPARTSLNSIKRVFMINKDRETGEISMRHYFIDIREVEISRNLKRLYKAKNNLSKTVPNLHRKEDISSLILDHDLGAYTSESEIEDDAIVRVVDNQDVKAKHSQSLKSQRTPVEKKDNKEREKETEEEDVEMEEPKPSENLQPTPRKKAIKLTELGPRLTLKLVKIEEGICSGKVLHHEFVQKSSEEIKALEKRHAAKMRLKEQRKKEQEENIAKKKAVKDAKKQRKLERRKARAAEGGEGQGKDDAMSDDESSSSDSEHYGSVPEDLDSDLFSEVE
The assay is described as above.

Assay [1] deals with T3, Noc2-TAP (S. cerevisiae) (UniProt P39744).
T3 sequence: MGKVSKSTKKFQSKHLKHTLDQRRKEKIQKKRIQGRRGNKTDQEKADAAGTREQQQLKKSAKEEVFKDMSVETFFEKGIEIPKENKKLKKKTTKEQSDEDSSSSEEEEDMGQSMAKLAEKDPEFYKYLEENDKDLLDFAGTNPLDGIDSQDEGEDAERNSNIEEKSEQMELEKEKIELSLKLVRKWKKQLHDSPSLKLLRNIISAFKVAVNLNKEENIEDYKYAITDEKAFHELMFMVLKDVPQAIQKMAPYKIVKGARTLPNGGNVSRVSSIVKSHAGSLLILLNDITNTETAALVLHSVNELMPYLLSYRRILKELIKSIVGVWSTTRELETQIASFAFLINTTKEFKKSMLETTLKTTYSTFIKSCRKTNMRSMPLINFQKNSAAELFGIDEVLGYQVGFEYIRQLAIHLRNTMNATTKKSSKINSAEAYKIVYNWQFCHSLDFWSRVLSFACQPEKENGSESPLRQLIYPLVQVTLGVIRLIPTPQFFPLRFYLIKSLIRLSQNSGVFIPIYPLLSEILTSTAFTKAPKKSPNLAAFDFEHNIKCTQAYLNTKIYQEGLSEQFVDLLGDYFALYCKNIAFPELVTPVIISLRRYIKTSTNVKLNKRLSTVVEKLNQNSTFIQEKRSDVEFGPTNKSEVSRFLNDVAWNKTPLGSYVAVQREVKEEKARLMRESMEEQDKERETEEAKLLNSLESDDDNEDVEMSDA
Described as above.

In assay [2] the target is T3, Noc2-TAP (S. cerevisiae). Description: co-IP; Noc2-TAP purification from wild-type control and GAL1-RPL3, GAL1-NPA1 and GAL1-SSF1 Δssf2 strains grown in galactose (YPG) or shifted to glucose (YPD) for about 18 h; western blotting (Supplementary Figure S8). (In general: A western blot detects proteins with antibodies after separation by electrophoresis.)
The target in assay [3] is T3, Noc2-TAP (S. cerevisiae). The assay is described as above. The source holds these as a separate data set.

Npa1 (from UniProt P34241 1-1764): the binding result with Nsa1-TAP (S. cerevisiae) was “no binding”; with Ssf1-TAP (S. cerevisiae), “binds”; with Noc2-TAP (S. cerevisiae) [1], “binds”; with Noc2-TAP (S. cerevisiae) [2] it was “binds”.

In the case of Rpl3 (from UniProt P14126 1-387), the binding entry in the assay with Noc2-TAP (S. cerevisiae) [1] and in the assay with Noc2-TAP (S. cerevisiae) [2] was “binds” each time.

B1: Nhp2 (protein, UniProt P32495 1-156)
chain: MGKDNKEHKESKESKTVDNYEARMPAVLPFAKPLASKKLNKKVLKTVKKASKAKNVKRGVKEVVKALRKGEKGLVVIAGDISPADVISHIPVLCEDHSVPYIFIPSKQDLGAAGATKRPTSVVFIVPGSNKKKDGKNKEEEYKESFNEVVKEVQAL
Take B1: the binding result with Nsa1-TAP (S. cerevisiae) and with Noc2-TAP (S. cerevisiae) [1] was “binds” in each case.

B2: Nop1 (enzyme, UniProt P15646 1-327)
chain: MSFRPGSRGGSRGGSRGGFGGRGGSRGGARGGSRGGFGGRGGSRGGARGGSRGGFGGRGGSRGGARGGSRGGRGGAAGGARGGAKVVIEPHRHAGVYIARGKEDLLVTKNMAPGESVYGEKRISVEEPSKEDGVPPTKVEYRVWNPFRSKLAAGIMGGLDELFIAPGKKVLYLGAASGTSVSHVSDVVGPEGVVYAVEFSHRPGRELISMAKKRPNIIPIIEDARHPQKYRMLIGMVDCVFADVAQPDQARIIALNSHMFLKDQGGVVISIKANCIDSTVDAETVFAREVQKLREERIKPLEQLTLEPYERDHCIVVGRYMRSGLKK
Take B2: the binding result in the assay with Nsa1-TAP (S. cerevisiae) was “binds”.

B3: Dbp6 (enzyme, UniProt P53734 1-629)
chain: MFASRFDPSQLTAPAASAPEGIVGTTPPAIVPLKRQATESDNEEYGSHQDSDESSNSSSEEDEDRMQVDYGASEEDSSEVEEEESKPSTHSTVLSRFKQTVSLQERLGASDIAESKEDEGIEDEAASTHQLKQIPQPEFVKNPMNLNTNSLQFKSTGWLNTEKIYYDNSLIKPFSDYANELEAKLLQNICKNFSTNTFPIQSIILDSILPVLNFTLNVSKRNFTRRIGDILVNAATGSGKTLAYSIPIVQTLFKRQINRLRCIIIVPTKLLINQVYTTLTKLTQGTSLIVSIAKLENSLKDEHKKLSNLEPDILITTPGRLVDHLNMKSINLKNLKFLIIDEADRLLNQSFQGWCPKLMSHLKTDKLDTLPGNVIKMIFSATLTTNTEKLNGLNLYKPKLFLKQTDKLYQLPNKLNEFNINIPTAKSVYKPLILLYSICQFMAHSPIAAKILIFVKSNESSIRLSKLLQLICESRSQSSVLKNLQNLAVSINSVNSNNSKAENKKIVANFSHHSESAGITILITTDIMSRGIDINDITQVINYDPPMSSQQYVHRVGRTARANELGSAYNLLVGRGERTFFDDLNKDLDRDGKSVQPLELDFTLLESDSELYTSSLESLKNYHNNTAQA
For B3, the binding result in the assay with Noc2-TAP (S. cerevisiae) [3] is “binds”.
